PubChem BioAssay AID504764, Drosophila RNAi Screening Center, 2011
Aim: 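Genome-wide screen for regulators of Notch-driven gene expression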 (primary screen). Cell system: Drosophila Kc167 cells. Reagents: long dsRNA against Drosophila genes. Duration: about 5 days (4 days dsRNA, then 24 h after transfection). Challenge: transfection of constitutively active membrane-tethered Notch lacking the extracellular domain, read 24 h later. Detection: 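Light from a Notch-responsive E(spl)m3 luciferase reporter under active Notch, with control-promoter and no-Notch reporter wells to normalise; raw counts from paired wells a and b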. Reading the numbers: induced reporter light, run 1, well a and induced reporter light, run 1, well b: higher = more light from the Notch target reporter with active Notch; control promoter light, run 1, well a and control promoter light, run 1, well b: higher = more light from the viral control promoter (cell number, transfection, viability); uninduced reporter light, run 1, well a: higher = more light from the Notch target reporter without active Notch. Active means: 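Wells with low control signal or poorly matching duplicates excluded; duplicates averaged; per source plate, z beyond ±2 for induced/control log2 ratio or beyond ±1.8 for induced/uninduced marks a hit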. Meaning of the calls: active = modifier hit (raised or lowered Notch signal); inactive = not a hit.
The screen tested about 22,000 reagents; this is a random part of those with a known target gene and a result. Of all reagents, 403 (1.9%) were called active. 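Unnormalised raw counts per well; ratio z-scores behind the hit calls and whether each hit raises or lowers signal are not deposited.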 A plus sign joins genes that one reagent is predicted to hit. Reagent sequences are not shown. Not stated in the record: the amount of reagent.

| Gene | dsRNA | induced reporter light, run 1, well a | induced reporter light, run 1, well b | control promoter light, run 1, well a | control promoter light, run 1, well b | uninduced reporter light, run 1, well a | Call |
| --- | --- | --- | --- | --- | --- | --- | --- |
| Obp19a (GeneID 33037) | DRSC20487 | 98195 | 1.02e5 | 88180 | 1.24e5 | 11790 | inactive |
| Dif (GeneID 35045) | DRSC03316 | 1.46e5 | 1.60e5 | 1.52e5 | 1.13e5 | 11460 | active |
| ATPsynCF6 (GeneID 42759) | DRSC14092 | 1.02e5 | 93700 | 1.57e5 | 1.38e5 | 8725 | inactive |
| NetB (GeneID 32400) | DRSC20262 | 1.51e5 | 1.65e5 | 2.02e5 | 1.89e5 | 10660 | inactive |
| CG18528 (GeneID 42906) | DRSC15340 | 1.84e5 | 1.63e5 | 2.09e5 | 1.93e5 | 15230 | inactive |
| mRpS21 (GeneID 318249) | DRSC12965 | 2.26e5 | 2.19e5 | 2.47e5 | 2.35e5 | 15210 | inactive |
| CG4483 (GeneID 39057) | DRSC10426 | 1.71e5 | 1.79e5 | 2.65e5 | 2.22e5 | 12045 | inactive |
| Nthl1 (GeneID 35365) | DRSC03183 | 67120 | 34225 | 57195 | 40030 | 2028 | inactive |
| Rpt5 (GeneID 42805) | DRSC16842 | 38820 | 30420 | 26405 | 22080 | 1788 | active |
| CG34107 (GeneID 4379852) | DRSC14554 | 68360 | 66380 | 68655 | 56270 | 4270 | inactive |
| RasGAP1 (GeneID 39158) | DRSC11172 | 1.63e5 | 1.34e5 | 2.84e5 | 1.83e5 | 4420 | inactive |
| CG13912 (GeneID 38120) | DRSC08381 | 1.38e5 | 1.08e5 | 1.97e5 | 2.46e5 | 5985 | inactive |
| CG13042 (GeneID 39798) | DRSC09923 | 2.20e5 | 1.49e5 | 2.08e5 | 38005 | 12210 | inactive |
| CG10864 (GeneID 42222) | DRSC14273 | 2.04e5 | 1.58e5 | 2.19e5 | 2.20e5 | 13185 | inactive |
| Nmdar2 (GeneID 31107) | DRSC18183 | 1.14e5 | 1.19e5 | 2.02e5 | 1.82e5 | 9010 | inactive |
| Nmdar2 (GeneID 31107) | DRSC18511 | 1.14e5 | 1.03e5 | 1.76e5 | 2.27e5 | 7360 | inactive |
| Nmdar2 (GeneID 31107) | DRSC18569 | 1.36e5 | 1.06e5 | 1.68e5 | 2.03e5 | 9870 | inactive |
| CG7220 (GeneID 36129) | DRSC05235 | 1.99e5 | 2.24e5 | 3.10e5 | 3.35e5 | 22390 | inactive |
| CG7220 (GeneID 36129) | DRSC07018 | 1.94e5 | 1.66e5 | 1.85e5 | 2.01e5 | 16350 | inactive |
| CG5966 (GeneID 31532) | DRSC18394 | 2.09e5 | 1.86e5 | 2.39e5 | 2.10e5 | 15482 | inactive |
| Glut1 (GeneID 38109) | DRSC07927 | 2.24e5 | 2.37e5 | 2.86e5 | 2.49e5 | 16200 | inactive |
| Glut1 (GeneID 38109) | DRSC08662 | 1.06e5 | 95450 | 2.02e5 | 2.13e5 | 9465 | inactive |
| bic (GeneID 45827) | DRSC07584 | 85280 | 99565 | 77820 | 93810 | 7445 | inactive |
| x16 (GeneID 33967) | DRSC00960 | 82000 | 76575 | 1.01e5 | 1.22e5 | 8005 | inactive |
| x16 (GeneID 33967) | DRSC03638 | 1.64e5 | 1.89e5 | 2.01e5 | 1.93e5 | 18085 | inactive |
| Or71a (GeneID 39641) | DRSC11244 | 1.96e5 | 1.62e5 | 2.38e5 | 1.68e5 | 7070 | inactive |
| CG17575 (GeneID 36414) | DRSC06682 | 73070 | 89280 | 1.28e5 | 90700 | 7055 | inactive |
| Rox8 (GeneID 42848) | DRSC16829 | 84850 | 85420 | 70495 | 81085 | 6890 | inactive |
| Cyp9b1 (GeneID 35634) | DRSC07389 | 2.00e5 | 2.32e5 | 2.54e5 | 2.26e5 | 16110 | inactive |
| CG15861 (GeneID 37990) | DRSC04274 | 1.37e5 | 1.62e5 | 1.77e5 | 1.33e5 | 11975 | inactive |
| nemy (GeneID 36395) | DRSC05357 | 1.57e5 | 1.71e5 | 2.62e5 | 2.21e5 | 16675 | inactive |
| nemy (GeneID 36395) | DRSC07262 | 98670 | 1.10e5 | 1.09e5 | 1.02e5 | 8705 | inactive |
| Hmr (GeneID 31988) | DRSC17740 | 1.14e5 | 1.32e5 | 2.57e5 | 2.53e5 | 8935 | inactive |
| CG15537 (GeneID 43614) | DRSC15073 | 1.58e5 | 1.37e5 | 2.28e5 | 1.99e5 | 10788 | inactive |
| CG14298 (GeneID 42259) | DRSC14777 | 1.64e5 | 1.72e5 | 2.29e5 | 2.22e5 | 11695 | inactive |
| CG13226 (GeneID 36184) | DRSC06346 | 1.05e5 | 99825 | 1.43e5 | 1.15e5 | 6565 | inactive |
| CG7094 (GeneID 35065) | DRSC03005 | 1.31e5 | 1.19e5 | 1.43e5 | 1.62e5 | 10710 | inactive |
| glob2 (GeneID 40807) | DRSC12560 | 67950 | 92405 | 76735 | 70565 | 5245 | inactive |
| CG17734 (GeneID 41359) | DRSC15256 | 72850 | 77755 | 66965 | 48390 | 3985 | inactive |
| Brd8 (GeneID 43460) | DRSC14866 | 1.70e5 | 1.95e5 | 2.17e5 | 2.23e5 | 11540 | inactive |
| robls54B (GeneID 5740248) | DRSC05660 | 1.33e5 | 1.04e5 | 1.52e5 | 1.42e5 | 7570 | inactive |
| CG15071 (GeneID 37153) | DRSC06504 | 35965 | 38965 | 42775 | 42565 | 4610 | inactive |
| Lapsyn (GeneID 37418) | DRSC04249 | 2.26e5 | 2.34e5 | 2.07e5 | 2.11e5 | 16900 | inactive |
| Rpp25 (GeneID 35574) | DRSC05002 | 1.80e5 | 1.53e5 | 1.52e5 | 1.59e5 | 10545 | inactive |
| CG4367 (GeneID 42409) | DRSC15568 | 2.11e5 | 1.88e5 | 2.21e5 | 2.38e5 | 15975 | inactive |
| CG7406 (GeneID 32892) | DRSC20042 | 76615 | 84285 | 1.32e5 | 1.30e5 | 9915 | inactive |
| KP78a + KP78b | DRSC16721 | 66850 | 77810 | 61820 | 44250 | 6635 | inactive |
| KP78a + KP78b | DRSC16722 | 58180 | 67445 | 67000 | 45635 | 7455 | inactive |
| Tif-IA (GeneID 35454) | DRSC03717 | 1.92e5 | 1.92e5 | 1.43e5 | 1.52e5 | 14080 | inactive |
| Tif-IA (GeneID 35454) | DRSC03726 | 44365 | 37950 | 53600 | 36390 | 2865 | inactive |

Ordered by “uninduced reporter light, run 1, well a” (highest first): some entries from above
| Gene | dsRNA | induced reporter light, run 1, well a | induced reporter light, run 1, well b | control promoter light, run 1, well a | control promoter light, run 1, well b | uninduced reporter light, run 1, well a | Call |
| --- | --- | --- | --- | --- | --- | --- | --- |
| CG7220 (GeneID 36129) | DRSC05235 | 1.99e5 | 2.24e5 | 3.10e5 | 3.35e5 | 22390 | inactive |
| x16 (GeneID 33967) | DRSC03638 | 1.64e5 | 1.89e5 | 2.01e5 | 1.93e5 | 18085 | inactive |
| CG7220 (GeneID 36129) | DRSC07018 | 1.94e5 | 1.66e5 | 1.85e5 | 2.01e5 | 16350 | inactive |
| Glut1 (GeneID 38109) | DRSC07927 | 2.24e5 | 2.37e5 | 2.86e5 | 2.49e5 | 16200 | inactive |
| CG5966 (GeneID 31532) | DRSC18394 | 2.09e5 | 1.86e5 | 2.39e5 | 2.10e5 | 15482 | inactive |
| Glut1 (GeneID 38109) | DRSC08662 | 1.06e5 | 95450 | 2.02e5 | 2.13e5 | 9465 | inactive |
| x16 (GeneID 33967) | DRSC00960 | 82000 | 76575 | 1.01e5 | 1.22e5 | 8005 | inactive |
| bic (GeneID 45827) | DRSC07584 | 85280 | 99565 | 77820 | 93810 | 7445 | inactive |
